# In US11628176B2, “Combinational drug therapies” (Opna Bio SA, priority 2020, dated 2023):
# Key:
# LNCaP cells = experiment: Prostate cancer cell growth assay, single compound (CellTiter-Glo); assay type: cell-based; details: Homo sapiens, 120 h, 5 days incubation, n=3, read-out: IC50 (geometric mean)
# Method: (§1) Growth assays were done in triplicate and performed as follows.
# (§2) 1. On Day 1, LNCaP and 22Rv1 cells were seeded in wells of a 96-well plate at a density of 3000 cells/well in 100 μL of culture media (RPMI 1640 medium supplemented with 10% fetal bovine serum and 1% Penicillin/Streptomycin). Cells were incubated overnight at 37° C. in a humidified atmosphere with 5% CO2.
# (§3) 2. On Day 2, for single compound treatment studies, each compound was serially diluted 1:3 in DMSO to create a 9-point titration. A 3 μL aliquot of each dilution was added to 747 μL culture media and 100 μL were added to each triplicate well. Wells containing 0.2% DMSO-treated cells served as uninhibited controls.
# (§4) In all studies, cells were incubated at 37° C. in a humidified atmosphere with 5% CO2 for 5 days.
# (§5) 3. On Day 7, cell cultures were brought to room temperature for 30 minutes and 50 μL of reconstituted CellTiter-Glo Reagent was added to each well. Plates were shaken at room temperature for approximately 15 minutes Luminescent signal was quantified on a microplate reader.
# (§6) 1. For single compound treatment study, all responses were expressed as % inhibition (the percentage inhibition compared to the average response of the DMSO-treated control wells). The data were analyzed by using nonlinear regression to generate IC50 values in Prism (GraphPad, La Jolla, Calif.). […]
# 22Rv1 cells = experiment: as above; assay type: cell-based; details: Homo sapiens, 120 h; 22Rv1 cell growth, 5 days incubation, n=3; read-out: IC50 (geometric mean)
# Method: as §1, §2, §3, §4, §5, §6
compound,measurement,setting,value
CNC(=O)c1ccc(N2C(=S)N(c3ccc(C#N)c(C(F)(F)F)c3)C(=O)C2(C)C)cc1F [enzalutamide],IC50,LNCaP cells,6.8 µM
same,IC50,22Rv1 cells,51 µM
